No constants are given. Whether binding was seen depends on the method and setting. A result given as binding can be weak or reduced; the word gives no strength.
Target: Rps27 (S. cerevisiae (endogenous in strain BY4741)) (UniProt P35997)
Test: cryo-EM structure

Chains of the proteins cited; added tags and fusions are not shown. Lines headed by an entry give the natural chain unless they say otherwise; changes in a name come on top.
UniProt P35997: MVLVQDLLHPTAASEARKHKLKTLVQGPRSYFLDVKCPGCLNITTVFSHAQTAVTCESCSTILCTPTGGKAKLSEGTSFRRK

binding: binds
B1: Rrp7 (protein, UniProt P25368 1-297)
chain: MGIEDISAMKNGFIVVPFKLPDHKALPKSQEASLHFMFAKRHQSSNSNESDCLFLVNLPLLSNIEHMKKFVGQLCGKYDTVSHVEELLYNDEFGLHEVDLSALTSDLMSSTDVNEKRYTPRNTALLKFVDAASINNCWNALKKYSNLHAKHPNELFEWTYTTPSFTTFVNFYKPLDIDYLKEDIHTHMAIFEQREAQAQEDVQSSIVDEDGFTLVVGKNTKSLNSIRKKILNKNPLSKHENKAKPISNIDKKAKKDFYRFQVRERKKQEINQLLSKFKEDQERIKVMKAKRKFNPYT
